PubChem BioAssay AID1508597, Cure First – 2020
Screen: 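Genes whose silencing sensitises or protects ovarian cancer cells against rucaparib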 (primary screen). Cell system: human ovarian carcinoma lines grown from tumours: OCI-P5x (papillary serous) and OCI-C5x (clear cell). Reagents: siRNA pool against human genes, 1.25 pmol siRNA per well. Time to read-out: 72 h or 96 h, depending on the cell culture. Challenge: rucaparib 20 µM (about IC30) or vehicle, present until read-out. Rucaparib or vehicle: Rucaparib. Cell line: OCI-C5x (clear cell). Detection: 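Luminescent ATP-based viability assay read 72 or 96 h after transfection, depending on culture, given as normalised percent viability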. Direction: viability, normalised: higher = more viable cells remaining. Hit rule: 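a well counts as a hit if its normalised viability is under 80 percent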. Calls: active = viability under 80%; inactive = viability 80% or more.
This is an unselected part of the about 2,100 reagents, under one of the conditions tested. 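Calls flag viability under 80% in either arm, not effects specific to rucaparib; the reference for percent is not stated.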 Reagent sequences are not shown. Not stated in the record: the 100% reference.

gene	technical replicate	viability, normalised (%)	outcome
PRKN	1	48.6	active
PRKN	2	52.4	active
PRKN	3	47.1	active
PIP4K2B	1	54.8	active
PIP4K2B	2	42.9	active
PIP4K2B	3	61.5	active
